The values below come from the supplement of paper PMC12872613.

SMILES strings stand for the structures. Structures can show the parent of a compound that is named as a salt. This is one part of the list. No stated cut-off is given here; in the data, active = 0.7 or more and inactive = the rest. Most values come without repeats; read them as rough.

The subject of this experiment is MiaPaCa-2 CLSA-25. Nature of the experiment: cell death relative to DMSO vehicle (fraction); higher = more cytotoxic. As to conditions: 5 µM; treatment time 48 h; medium cystine 25 µM.

Turning to `C[C@H](NC(=O)C(=O)Nc1ccccc1C(C)(C)C)C(=O)N[C@@H](CC(=O)O)C(=O)COc1c(F)c(F)cc(F)c1F` [Emricasan], the cell death is inactive: 0.45.
Consider `C[N+](C)(C)CC(O)CC(=O)[O-]` (stereo not drawn) [L(-)-Carnitine], for which the cell death is inactive: 0.0318.
The same measure for `O[C@@H]1[C@@H](O)[C@@H](OC/C=C/c2ccccc2)O[C@H](CO[C@@H]2OC[C@H](O)[C@H](O)[C@H]2O)[C@H]1O` [Rosavin]: inactive: 0.615; for `N=C(N)Nc1ccc(C(=O)Oc2ccc3cc(C(=N)N)ccc3c2)cc1` [Nafamostat mesylate]: inactive: 0.124.
The same measure for `Cn1c(=O)cc(N2CCC[C@@H](N)C2)n(Cc2ccccc2C#N)c1=O` [Alogliptin Benzoate]: inactive: 0.0524; for `Cc1ccccc1N=Nc1ccc(NC(=O)c2ccnn2C)c(C)c1`: inactive: 0.0118; for `Cc1cc(SCc2sc(-c3ccc(C(F)(F)F)cc3)nc2C)ccc1OCC(=O)O`: inactive: 0.574.
The same measure for `Cc1nc(-c2ccc(OCC(C)C)c(C#N)c2)sc1C(=O)O` [Febuxostat]: active: 0.712.
Turning to `C=CCNC(N)=S` [Allylthiourea], the cell death is inactive: 0.0423.
As for `O=c1c(O)c(-c2ccccc2)oc2cc(O)cc(O)c12` [Galangin], the cell death is inactive: 0.138.
The result for `CNc1nc(-c2cccc(NC(=O)c3ccc(C(=O)OC)cc3)c2)c2cc(OC)c(OC)cc2n1` [Lotamilast] reads active: 0.774.
Consider `NS(=O)(=O)c1cc2c(cc1Cl)N=CNS2(=O)=O` [Chlorothiazide], for which the cell death was inactive: 0.336.
On to `O=C(c1ccc(NS(=O)(=O)c2cccc3cccnc23)cc1)N1CCN(CC2CC2)CC1` [Mitapivat], for which the cell death was inactive: 0.277.
The result for `COc1ccc(-c2coc3cc(O)cc(O)c3c2=O)cc1` [Biochanin A] reads inactive: 0.318; that for `NC(=O)c1ncn([C@@H]2O[C@H](CO)[C@@H](O)[C@H]2O)c1N` [AICAR (Acadesine)], inactive: 0.231; that for `CC(C)c1nc(CN(C)C(=O)N[C@@H](CCN2CCOCC2)C(=O)N[C@H](CC[C@H](Cc2ccccc2)NC(=O)OCc2cncs2)Cc2ccccc2)cs1` [Cobicistat], inactive: 0.517.
The same measure for `CC[C@H](CC[C@@H](C)[C@H]1CC[C@H]2[C@@H]3CC=C4C[C@@H](O[C@@H]5O[C@H](CO)[C@@H](O)[C@H](O)[C@H]5O)CC[C@]4(C)[C@H]3CC[C@]12C)C(C)C` [Sitogluside]: inactive: 0.686.
For the compound `O=C(Nc1ccccc1)N1CCN(c2nc(-c3ccccc3)ns2)CC1`, the cell death was inactive: 0.269.
The same measure for `Cc1c(C(=O)NN2CCCCC2)nn(-c2ccc(Cl)cc2Cl)c1-c1ccc(Cl)cc1` [Rimonabant]: inactive: 0.199; for `C[C@H](CCC(=O)O)[C@H]1CC[C@H]2[C@@H]3[C@H](O)C[C@@H]4C[C@H](O)CC[C@]4(C)[C@H]3C[C@H](O)[C@]12C` [Cholic Acid]: inactive: 0.0201; for `Oc1ccc(/C=C/c2cc(O)cc(O)c2)cc1` [Resveratrol]: inactive: 0.166.
The result for `C[C@H](CCC(=O)O)[C@H]1CC[C@H]2[C@@H]3C(=O)C[C@@H]4CC(=O)CC[C@]4(C)[C@H]3CC(=O)[C@]12C` [Sodium dehydrocholate] reads inactive: 0.0391; that for `O=C1c2ccccc2C(=O)C1c1ccc(Cl)cc1` [chlophenadione], inactive: 0.119.
As to `Cc1ncc([N+](=O)[O-])n1CCO` [Metronidazole], the cell death is inactive: 0.0936.
As to `COc1c(O)cc2oc3cc(O)c(CC=C(C)C)c(O)c3c(=O)c2c1CC=C(C)C` [Mangostin], the cell death is active: 0.749.
As to `Cc1cc(O)c2c(c1)C(=O)c1cc(O)cc(O)c1C2=O` [Emodin], the cell death was inactive: 0.108.
The same measure for `CCN(CC)C(=O)N1CCN(C)CC1` [Diethylcarbamazine citrate]: inactive: 0.452; for `CC(C)C[C@@H](C(=O)N[C@H](C(=O)OC1CCCC1)c1ccccc1)[C@H](O)C(=O)NO` [Tosedostat]: inactive: 0.1; for `CCc1ccc(N(CC(C)C)S(=O)(=O)c2ccc(OCC3CCOCC3)c(CO)c2)cc1`: active: 0.797.
The result for `CCOC(=O)N1c2ccc(C(F)(F)F)cc2[C@@H](N(Cc2cc(C(F)(F)F)cc(C(F)(F)F)c2)C(=O)OC)C[C@H]1CC` [Torcetrapib] reads inactive: 0.445.
The same measure for `NC(N)=NCCCC(=O)O` [4-Guanidinobutyric acid]: inactive: 0.31.
